Laboratory results: PubChem BioAssay AID743121 (NCATS, 2013)
Shown is an unselected part of about 26,000 reagents tested. 167 of them (0.63%) count as active. 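Calls are per gene from RSA p-values that are not deposited; an individual active-marked siRNA can sensitise only weakly.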 Entries without a mark were called inactive. Reagents against one gene are numbered here. Not all columns of the deposit are shown.

- Purpose: 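Partners whose loss is lethal together with topoisomerase I blockade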 (primary screen)
- System: MDA-MB-231 cells, a human breast cancer line
- Knock-down reagent: single siRNA against human genes, 20 nM siRNA (0.8 pmol per well)
- Timing: 120 h (drug added 48 h after transfection, read 72 h later)
- Treatment: camptothecin 20 nM (about EC30) for 72 h; vehicle 0.1% DMSO in parallel plates
- Measured: 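CellTiter-Glo ATP signal, scaled to control siRNA as percent viability; sensitisation given as log2 of untreated divided by camptothecin-treated viability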
- Reading the numbers: log2 vehicle/camptothecin viability: higher = stronger sensitisation to camptothecin
- Rule for the call: 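Active genes have an RSA gene-level p-value below 0.001, computed from the ratios of their separate siRNAs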

log2 vehicle/camptothecin viability, by target gene and reagent
GABRG1: #1 -0.212; #2 0.0547; #3 0.0494; #4 0.249
UCHL3: #1 0.0786; #2 -0.153; #3 -0.292; #4 -0.104
RAB37: #1 1.27; #2 0.248; #3 -0.0161; #4 -0.68
MORN5: #1 -0.178; #2 -0.257; #3 0.0512; #4 -0.158
IRF9: #1 0.0236; #2 -0.242; #3 -0.0583; #4 -0.22
CAMK2N1: #1 -0.141; #2 -0.183; #3 0.34; #4 -0.314
ATP4B: #1 -0.398; #2 -0.504; #3 -0.205; #4 -0.206
SUMO3: #1 -0.329; #2 -0.491; #3 0.0921; #4 0.0596
SIK3: #1 -0.692; #2 0.0224; #3 -0.411
CYP19A1: #1 0.171; #2 -0.083; #3 0.493; #4 -0.116
PACRG: #1 -0.507; #2 0.328; #3 -0.344
TGM6: #1 -0.275; #2 -0.00385; #3 -0.0959; #4 0.0204
PON1: #1 -0.0071; #2 0.0344; #3 -0.305; #4 -0.0985
PDE6G: #1 0.11; #2 -0.0192; #3 -0.0914
CCND3: #1 -0.506; #2 -0.662; #3 0.461; #4 -0.205
SLC25A41: #1 -0.248; #2 -0.1; #3 -0.0146; #4 0.47
KCNA2: #1 0.43; #2 0.236; #3 -0.151; #4 -0.469
CYP2C9: #1 0.367; #2 0.152; #3 0.0829

5 entries from above, ordered by “log2 vehicle/camptothecin viability”, lowest first.
target gene	reagent	log2 vehicle/camptothecin viability
UCHL3	3	-0.292
UCHL3	2	-0.153
UCHL3	4	-0.104
RAB37	2	0.248
RAB37	1	1.27
